Reference: PubChem BioAssay AID1259308 (NCATS, 2017)
The deposit covers about 59,000 reagents; this is a part drawn at random. About 1,510 of them (2.6%) count as active. 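Calls use total luciferase alone and ignore viability, so some active siRNAs may act by altering cell number.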 Reagents against one gene are numbered here. Further read-outs or replicates are left out here.

Test: 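Candidate targets for better recombinant protein yield in mammalian cells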 (primary screen)
Cell system: human HEK293 embryonic kidney cells stably expressing firefly luciferase (HEK-CMV-Luc2-Hygro)
Knock-down reagent: single siRNA against human genes, 0.8 pmol siRNA per well
Duration: 72 h
Read-out: 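Luciferase light (ONE-Glo) measured on one replicate plate set and viability (CellTiter-Glo) on the other, scaled to a negative control siRNA, with robust z-scores and luciferase per cell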
Reading the numbers: total luciferase, z-score: higher = more reporter protein produced
Call rule: 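An siRNA counts as active if its total luciferase robust z-score exceeds 3; genes with two or more such siRNAs out of three were retested with fresh siRNAs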
Calls: active = raised luciferase; inactive = no rise

| target gene | reagent no. | total luciferase, z-score | outcome |
| --- | --- | --- | --- |
| VN1R2 | 1 | 0.218 | inactive |
| VN1R2 | 2 | -0.273 | inactive |
| VN1R2 | 3 | -0.977 | inactive |
| BPNT2 | 1 | 0.713 | inactive |
| BPNT2 | 2 | -1.23 | inactive |
| BPNT2 | 3 | 0.175 | inactive |
| SECISBP2 | 1 | 0.402 | inactive |
| SECISBP2 | 2 | 0.469 | inactive |
| SECISBP2 | 3 | 4.1 | active |
| SP4 | 1 | 0.47 | inactive |
| SP4 | 2 | 1.01 | inactive |
| SP4 | 3 | 1.15 | inactive |

3 of these entries, set out differently:
{"target gene": "SP4", "reagent no.": 1, "total luciferase, z-score": 0.47, "outcome": "inactive"}
{"target gene": "SP4", "reagent no.": 2, "total luciferase, z-score": 1.01, "outcome": "inactive"}
{"target gene": "SP4", "reagent no.": 3, "total luciferase, z-score": 1.15, "outcome": "inactive"}

More results:
| target gene | reagent no. | total luciferase, z-score | outcome |
| --- | --- | --- | --- |
| MRPL30 | 1 | -1.86 | inactive |
| MRPL30 | 2 | 1.69 | inactive |
| MRPL30 | 3 | -0.467 | inactive |
| HENMT1 | 1 | -0.918 | inactive |
| HENMT1 | 2 | 0.371 | inactive |
| HENMT1 | 3 | -2.23 | inactive |
| C2orf81 | 1 | -0.217 | inactive |
| C2orf81 | 2 | -0.521 | inactive |
| C2orf81 | 3 | 1.41 | inactive |
| KCNH7 | 1 | -1.16 | inactive |
| KCNH7 | 2 | -0.115 | inactive |
| KCNH7 | 3 | 0.297 | inactive |
